Results are given in words; binding and its absence hold for the method and conditions named. In cells and extracts the contact can be indirect. Some entries that bind do so weakly or less than the wild type.
biological target: linker histone variant H1t (mouse (endogenous in P20 mouse testicular cells)) (UniProt Q07133); test: co-IP; ChIP-western / oligonucleosome IP: formaldehyde-crosslinked, sonicated chromatin of P20 mouse testicular cells; IP with anti-H1t, anti-H3K9me3, anti-H4K20me3 or anti-H3K4me3; non-specific IgG isotype control; eluate probed by western blotting

Sequences of proteins named here, by UniProt entry; tags and fusion partners are left off. A change or cut given only in a name is not applied to a line headed by its entry.
UniProt Q07133: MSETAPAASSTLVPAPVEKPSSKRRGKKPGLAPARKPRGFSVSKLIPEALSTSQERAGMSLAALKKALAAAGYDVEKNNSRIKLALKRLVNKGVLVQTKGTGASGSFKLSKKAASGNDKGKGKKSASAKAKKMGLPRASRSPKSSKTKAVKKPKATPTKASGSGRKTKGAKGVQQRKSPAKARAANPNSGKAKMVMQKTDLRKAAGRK
UniProt P23198: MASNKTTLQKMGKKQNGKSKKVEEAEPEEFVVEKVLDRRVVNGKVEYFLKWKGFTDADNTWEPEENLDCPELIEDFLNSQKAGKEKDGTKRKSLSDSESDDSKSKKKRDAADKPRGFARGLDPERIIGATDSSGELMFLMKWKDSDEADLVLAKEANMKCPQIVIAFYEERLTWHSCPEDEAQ
UniProt P17156: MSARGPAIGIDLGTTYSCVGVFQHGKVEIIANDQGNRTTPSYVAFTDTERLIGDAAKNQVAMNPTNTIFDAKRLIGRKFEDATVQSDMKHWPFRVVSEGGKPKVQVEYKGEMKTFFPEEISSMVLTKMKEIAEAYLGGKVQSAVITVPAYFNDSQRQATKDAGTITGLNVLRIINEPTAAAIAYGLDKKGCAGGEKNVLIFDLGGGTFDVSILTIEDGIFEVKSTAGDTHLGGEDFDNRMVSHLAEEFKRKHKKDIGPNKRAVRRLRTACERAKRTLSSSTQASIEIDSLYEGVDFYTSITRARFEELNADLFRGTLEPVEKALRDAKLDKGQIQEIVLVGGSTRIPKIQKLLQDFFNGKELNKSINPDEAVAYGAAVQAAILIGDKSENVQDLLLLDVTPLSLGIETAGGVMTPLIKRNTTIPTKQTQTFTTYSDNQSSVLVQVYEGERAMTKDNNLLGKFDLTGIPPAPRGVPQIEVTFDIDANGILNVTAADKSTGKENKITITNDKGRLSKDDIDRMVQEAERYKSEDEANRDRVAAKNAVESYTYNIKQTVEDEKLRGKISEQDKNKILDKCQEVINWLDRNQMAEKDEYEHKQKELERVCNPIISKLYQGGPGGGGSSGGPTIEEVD
UniProt P83917: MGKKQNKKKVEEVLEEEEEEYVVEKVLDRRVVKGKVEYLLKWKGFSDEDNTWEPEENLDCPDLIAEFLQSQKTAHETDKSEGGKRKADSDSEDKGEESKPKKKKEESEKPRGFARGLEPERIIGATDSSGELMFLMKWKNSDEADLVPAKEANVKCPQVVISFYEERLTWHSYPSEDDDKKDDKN
UniProt Q61937: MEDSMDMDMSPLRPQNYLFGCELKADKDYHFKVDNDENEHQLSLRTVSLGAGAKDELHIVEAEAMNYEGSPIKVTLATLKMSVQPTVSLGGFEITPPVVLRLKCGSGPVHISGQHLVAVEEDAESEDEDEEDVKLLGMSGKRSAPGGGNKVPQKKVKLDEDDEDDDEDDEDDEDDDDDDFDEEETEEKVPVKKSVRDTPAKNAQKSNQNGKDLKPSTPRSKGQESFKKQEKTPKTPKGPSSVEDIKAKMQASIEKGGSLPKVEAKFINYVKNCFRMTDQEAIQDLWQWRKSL
UniProt Q9JMB7: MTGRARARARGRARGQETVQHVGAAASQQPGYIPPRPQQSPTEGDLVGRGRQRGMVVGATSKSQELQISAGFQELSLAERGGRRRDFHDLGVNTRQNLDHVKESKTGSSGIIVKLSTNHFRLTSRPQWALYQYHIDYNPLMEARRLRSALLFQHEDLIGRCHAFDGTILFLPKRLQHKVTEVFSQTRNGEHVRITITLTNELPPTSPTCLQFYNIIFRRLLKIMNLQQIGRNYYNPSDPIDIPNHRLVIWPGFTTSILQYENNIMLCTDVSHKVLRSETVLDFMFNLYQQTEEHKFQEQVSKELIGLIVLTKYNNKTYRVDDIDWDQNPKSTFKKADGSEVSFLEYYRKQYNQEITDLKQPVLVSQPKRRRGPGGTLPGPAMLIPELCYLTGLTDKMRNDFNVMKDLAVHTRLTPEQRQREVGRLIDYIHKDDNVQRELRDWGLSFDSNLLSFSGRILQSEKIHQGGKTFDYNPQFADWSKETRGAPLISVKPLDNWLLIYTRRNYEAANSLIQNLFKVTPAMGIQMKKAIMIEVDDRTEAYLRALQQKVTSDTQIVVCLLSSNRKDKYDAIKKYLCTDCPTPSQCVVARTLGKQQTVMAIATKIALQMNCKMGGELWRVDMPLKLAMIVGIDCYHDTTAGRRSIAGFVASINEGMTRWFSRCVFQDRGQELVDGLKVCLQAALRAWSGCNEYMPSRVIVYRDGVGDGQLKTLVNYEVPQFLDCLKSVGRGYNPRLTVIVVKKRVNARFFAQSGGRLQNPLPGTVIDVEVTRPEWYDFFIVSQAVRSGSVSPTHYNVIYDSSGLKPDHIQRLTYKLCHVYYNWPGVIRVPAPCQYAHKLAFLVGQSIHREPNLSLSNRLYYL

Row | Substance | binding
1 | HP1γ (from UniProt P23198 1-183) | binds
2 | Hspa2 (from UniProt P17156 1-633) | binds
3 | HP1β (from UniProt P83917 1-185) | binds

Now from value to substance:

Row | binding | Substance
4 | binds | Npm1 (from UniProt Q61937 1-292)
5 | binds | Piwil1 (from UniProt Q9JMB7 1-862)
